Results published in the supplement of paper PMC10849652.
Some of the results follow.

Sequences of proteins named here, by UniProt entry; tags and fusion partners are left off. A change or cut given only in a name is not applied to a line headed by its entry.
UniProt Q8IVH2: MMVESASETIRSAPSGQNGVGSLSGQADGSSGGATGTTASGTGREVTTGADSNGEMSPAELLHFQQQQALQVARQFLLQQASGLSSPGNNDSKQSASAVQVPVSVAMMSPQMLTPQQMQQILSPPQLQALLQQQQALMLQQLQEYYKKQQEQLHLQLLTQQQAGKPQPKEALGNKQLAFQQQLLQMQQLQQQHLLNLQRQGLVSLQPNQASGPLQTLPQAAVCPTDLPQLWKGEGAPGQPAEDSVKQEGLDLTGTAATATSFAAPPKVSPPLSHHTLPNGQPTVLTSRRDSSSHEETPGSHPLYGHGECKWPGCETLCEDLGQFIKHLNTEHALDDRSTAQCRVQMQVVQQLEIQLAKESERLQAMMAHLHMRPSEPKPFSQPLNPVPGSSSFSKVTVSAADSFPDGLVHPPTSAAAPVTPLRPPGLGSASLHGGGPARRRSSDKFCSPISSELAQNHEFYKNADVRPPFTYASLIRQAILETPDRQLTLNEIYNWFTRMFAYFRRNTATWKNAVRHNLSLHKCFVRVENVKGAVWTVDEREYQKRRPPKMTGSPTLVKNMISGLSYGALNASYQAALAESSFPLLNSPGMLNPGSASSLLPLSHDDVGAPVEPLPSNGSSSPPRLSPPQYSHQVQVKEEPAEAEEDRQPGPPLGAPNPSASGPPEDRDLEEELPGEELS
UniProt P85037: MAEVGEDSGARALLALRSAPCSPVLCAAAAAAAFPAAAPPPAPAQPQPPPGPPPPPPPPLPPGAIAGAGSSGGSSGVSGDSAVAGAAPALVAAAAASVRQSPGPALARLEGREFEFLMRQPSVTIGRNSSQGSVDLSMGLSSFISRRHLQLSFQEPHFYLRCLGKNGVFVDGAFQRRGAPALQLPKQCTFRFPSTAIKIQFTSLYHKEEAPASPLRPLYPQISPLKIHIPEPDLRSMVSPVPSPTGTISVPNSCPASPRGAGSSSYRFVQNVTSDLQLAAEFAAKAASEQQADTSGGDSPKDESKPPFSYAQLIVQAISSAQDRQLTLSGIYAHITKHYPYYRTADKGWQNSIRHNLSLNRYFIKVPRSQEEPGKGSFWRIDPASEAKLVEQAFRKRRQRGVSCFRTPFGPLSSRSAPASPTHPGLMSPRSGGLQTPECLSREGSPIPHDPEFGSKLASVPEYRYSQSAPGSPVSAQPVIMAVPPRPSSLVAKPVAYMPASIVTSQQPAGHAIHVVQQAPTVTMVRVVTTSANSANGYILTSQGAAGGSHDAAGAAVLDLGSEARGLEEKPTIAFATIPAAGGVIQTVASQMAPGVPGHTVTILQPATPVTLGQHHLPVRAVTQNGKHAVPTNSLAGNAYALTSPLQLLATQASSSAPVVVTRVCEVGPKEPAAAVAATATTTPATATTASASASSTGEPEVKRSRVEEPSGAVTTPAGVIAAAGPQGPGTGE
UniProt P11413, whole entry, looked up: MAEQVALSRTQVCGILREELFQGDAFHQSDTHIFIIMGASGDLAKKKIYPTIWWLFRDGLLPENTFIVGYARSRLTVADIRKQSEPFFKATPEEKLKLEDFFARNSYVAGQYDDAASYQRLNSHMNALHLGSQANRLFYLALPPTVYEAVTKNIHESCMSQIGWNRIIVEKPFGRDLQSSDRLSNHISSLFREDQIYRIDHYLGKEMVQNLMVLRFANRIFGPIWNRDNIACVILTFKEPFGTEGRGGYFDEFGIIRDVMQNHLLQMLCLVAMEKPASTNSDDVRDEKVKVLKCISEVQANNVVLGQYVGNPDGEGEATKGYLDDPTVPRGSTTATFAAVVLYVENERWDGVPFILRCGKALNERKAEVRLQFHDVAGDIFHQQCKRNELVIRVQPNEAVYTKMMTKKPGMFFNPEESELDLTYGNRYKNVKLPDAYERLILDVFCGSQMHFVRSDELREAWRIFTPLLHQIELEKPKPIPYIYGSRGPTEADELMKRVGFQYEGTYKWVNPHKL
UniProt Q04446: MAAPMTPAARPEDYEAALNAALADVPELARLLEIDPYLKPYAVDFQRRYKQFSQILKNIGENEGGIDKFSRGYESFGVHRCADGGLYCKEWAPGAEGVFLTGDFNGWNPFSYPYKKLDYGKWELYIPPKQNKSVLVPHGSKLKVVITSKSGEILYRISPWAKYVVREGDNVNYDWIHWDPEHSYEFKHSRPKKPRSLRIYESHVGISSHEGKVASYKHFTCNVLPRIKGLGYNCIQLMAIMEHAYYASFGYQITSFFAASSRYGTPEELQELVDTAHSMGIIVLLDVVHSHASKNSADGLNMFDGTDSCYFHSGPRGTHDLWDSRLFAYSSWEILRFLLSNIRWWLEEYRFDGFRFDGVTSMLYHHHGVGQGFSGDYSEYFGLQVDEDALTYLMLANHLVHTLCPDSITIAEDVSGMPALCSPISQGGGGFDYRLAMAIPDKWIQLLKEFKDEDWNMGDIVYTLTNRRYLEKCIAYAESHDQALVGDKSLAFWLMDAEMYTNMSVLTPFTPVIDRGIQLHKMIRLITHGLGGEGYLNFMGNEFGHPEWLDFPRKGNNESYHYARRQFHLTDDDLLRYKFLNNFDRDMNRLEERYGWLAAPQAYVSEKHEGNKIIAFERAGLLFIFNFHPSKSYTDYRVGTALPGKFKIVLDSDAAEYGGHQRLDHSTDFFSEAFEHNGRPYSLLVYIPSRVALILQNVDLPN
UniProt O14772: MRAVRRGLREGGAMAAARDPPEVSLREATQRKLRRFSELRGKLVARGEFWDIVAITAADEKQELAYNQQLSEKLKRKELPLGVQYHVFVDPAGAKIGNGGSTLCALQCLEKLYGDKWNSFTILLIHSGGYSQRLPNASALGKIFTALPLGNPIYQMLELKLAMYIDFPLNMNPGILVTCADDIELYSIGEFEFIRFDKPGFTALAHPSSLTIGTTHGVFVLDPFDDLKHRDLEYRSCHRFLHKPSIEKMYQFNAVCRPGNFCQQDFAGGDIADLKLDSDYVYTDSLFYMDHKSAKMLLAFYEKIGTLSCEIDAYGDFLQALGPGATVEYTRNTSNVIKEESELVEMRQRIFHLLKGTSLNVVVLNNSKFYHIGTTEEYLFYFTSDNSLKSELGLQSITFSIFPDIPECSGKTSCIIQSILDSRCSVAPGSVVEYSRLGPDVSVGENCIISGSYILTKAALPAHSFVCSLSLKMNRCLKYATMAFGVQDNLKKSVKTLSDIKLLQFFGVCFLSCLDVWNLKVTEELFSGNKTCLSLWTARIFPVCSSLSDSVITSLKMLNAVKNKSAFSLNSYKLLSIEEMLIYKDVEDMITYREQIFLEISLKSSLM
UniProt Q10472: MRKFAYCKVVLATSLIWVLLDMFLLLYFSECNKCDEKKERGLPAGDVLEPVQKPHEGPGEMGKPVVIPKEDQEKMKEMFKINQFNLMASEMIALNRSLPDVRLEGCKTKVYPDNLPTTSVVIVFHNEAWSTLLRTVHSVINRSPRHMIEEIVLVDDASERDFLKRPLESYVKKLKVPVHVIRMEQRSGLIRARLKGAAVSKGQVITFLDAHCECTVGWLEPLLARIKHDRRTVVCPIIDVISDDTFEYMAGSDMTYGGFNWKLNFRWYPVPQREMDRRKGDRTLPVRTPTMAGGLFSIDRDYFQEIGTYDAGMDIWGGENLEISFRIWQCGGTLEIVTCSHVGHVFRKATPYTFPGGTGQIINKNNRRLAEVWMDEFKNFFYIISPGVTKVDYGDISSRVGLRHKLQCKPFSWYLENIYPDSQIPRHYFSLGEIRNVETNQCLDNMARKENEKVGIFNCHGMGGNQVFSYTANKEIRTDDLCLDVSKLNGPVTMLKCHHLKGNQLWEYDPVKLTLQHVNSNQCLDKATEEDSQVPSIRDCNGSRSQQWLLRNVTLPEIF
UniProt Q8IWJ2: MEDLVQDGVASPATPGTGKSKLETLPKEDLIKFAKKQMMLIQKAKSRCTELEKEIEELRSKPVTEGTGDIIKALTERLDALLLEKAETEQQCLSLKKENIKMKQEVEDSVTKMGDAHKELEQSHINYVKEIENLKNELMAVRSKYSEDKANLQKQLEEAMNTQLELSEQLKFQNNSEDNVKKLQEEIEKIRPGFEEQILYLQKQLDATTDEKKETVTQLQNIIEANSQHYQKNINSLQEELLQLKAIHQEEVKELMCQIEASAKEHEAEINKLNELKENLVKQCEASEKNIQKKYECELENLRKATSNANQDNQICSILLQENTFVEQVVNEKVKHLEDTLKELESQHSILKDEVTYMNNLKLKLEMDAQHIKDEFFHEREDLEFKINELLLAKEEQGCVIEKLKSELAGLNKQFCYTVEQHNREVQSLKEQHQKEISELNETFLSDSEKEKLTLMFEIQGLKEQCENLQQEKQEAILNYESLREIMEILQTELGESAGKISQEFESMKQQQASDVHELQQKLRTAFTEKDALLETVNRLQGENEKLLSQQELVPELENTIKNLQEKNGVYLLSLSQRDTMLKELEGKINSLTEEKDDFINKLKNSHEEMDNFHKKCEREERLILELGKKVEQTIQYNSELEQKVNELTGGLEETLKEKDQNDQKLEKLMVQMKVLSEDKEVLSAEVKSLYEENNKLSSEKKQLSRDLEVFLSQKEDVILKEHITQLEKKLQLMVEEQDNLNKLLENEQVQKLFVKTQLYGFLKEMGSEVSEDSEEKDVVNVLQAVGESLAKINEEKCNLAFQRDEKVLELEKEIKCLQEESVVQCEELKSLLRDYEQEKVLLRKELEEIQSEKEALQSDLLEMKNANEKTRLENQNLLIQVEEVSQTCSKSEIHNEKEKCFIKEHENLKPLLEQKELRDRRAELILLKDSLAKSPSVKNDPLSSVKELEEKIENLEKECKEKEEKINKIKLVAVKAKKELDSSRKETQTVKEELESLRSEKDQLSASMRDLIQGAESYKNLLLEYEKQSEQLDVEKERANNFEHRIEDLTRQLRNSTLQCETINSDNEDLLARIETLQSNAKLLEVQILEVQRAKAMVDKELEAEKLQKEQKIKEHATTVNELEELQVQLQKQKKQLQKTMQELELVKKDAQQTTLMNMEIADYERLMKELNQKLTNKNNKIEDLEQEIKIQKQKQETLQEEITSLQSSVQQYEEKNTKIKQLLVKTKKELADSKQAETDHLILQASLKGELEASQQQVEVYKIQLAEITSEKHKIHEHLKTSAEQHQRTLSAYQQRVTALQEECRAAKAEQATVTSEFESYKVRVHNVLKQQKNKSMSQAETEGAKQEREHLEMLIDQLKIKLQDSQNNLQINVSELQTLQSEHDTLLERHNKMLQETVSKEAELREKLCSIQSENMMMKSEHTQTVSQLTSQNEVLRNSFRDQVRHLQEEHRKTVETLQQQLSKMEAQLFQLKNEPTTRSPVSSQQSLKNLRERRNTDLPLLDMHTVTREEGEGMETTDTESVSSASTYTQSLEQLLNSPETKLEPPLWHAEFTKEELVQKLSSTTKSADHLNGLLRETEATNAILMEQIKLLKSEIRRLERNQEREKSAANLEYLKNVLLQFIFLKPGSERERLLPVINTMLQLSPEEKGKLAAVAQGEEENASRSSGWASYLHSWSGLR
UniProt P30047: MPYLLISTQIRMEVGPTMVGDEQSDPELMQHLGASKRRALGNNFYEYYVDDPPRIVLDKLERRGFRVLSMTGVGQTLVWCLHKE
UniProt Q01415: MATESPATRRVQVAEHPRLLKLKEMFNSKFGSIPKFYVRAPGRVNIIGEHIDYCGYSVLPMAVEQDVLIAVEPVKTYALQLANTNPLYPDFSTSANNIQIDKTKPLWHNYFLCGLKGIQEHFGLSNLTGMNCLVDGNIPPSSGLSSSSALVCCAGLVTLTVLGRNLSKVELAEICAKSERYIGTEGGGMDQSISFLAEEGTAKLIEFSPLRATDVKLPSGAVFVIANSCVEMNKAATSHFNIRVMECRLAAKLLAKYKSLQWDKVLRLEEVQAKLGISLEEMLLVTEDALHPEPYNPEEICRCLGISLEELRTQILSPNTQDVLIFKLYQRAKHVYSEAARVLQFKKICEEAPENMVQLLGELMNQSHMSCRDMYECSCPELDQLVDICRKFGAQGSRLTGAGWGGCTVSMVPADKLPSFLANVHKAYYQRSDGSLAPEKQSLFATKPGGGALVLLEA
UniProt P04406: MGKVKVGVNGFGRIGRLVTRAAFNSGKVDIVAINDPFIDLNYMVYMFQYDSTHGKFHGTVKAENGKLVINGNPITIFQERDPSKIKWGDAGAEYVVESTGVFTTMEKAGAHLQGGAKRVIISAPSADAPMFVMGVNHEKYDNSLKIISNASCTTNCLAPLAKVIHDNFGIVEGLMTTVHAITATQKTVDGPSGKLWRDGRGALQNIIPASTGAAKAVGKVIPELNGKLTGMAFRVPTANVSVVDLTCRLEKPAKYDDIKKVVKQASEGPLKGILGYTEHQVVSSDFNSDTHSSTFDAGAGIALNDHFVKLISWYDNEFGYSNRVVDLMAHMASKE
UniProt P23434: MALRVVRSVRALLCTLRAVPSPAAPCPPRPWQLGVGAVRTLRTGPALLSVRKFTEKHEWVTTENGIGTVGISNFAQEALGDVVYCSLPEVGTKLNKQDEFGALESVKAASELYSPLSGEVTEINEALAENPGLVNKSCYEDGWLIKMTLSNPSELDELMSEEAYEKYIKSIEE

Experiments:
Test in all cases: log2 fold change, soluble protein after heating vs DMSO (PISA); higher = thermal stabilisation; K562 lysate, 10 uM; active = over 0.2 and 3.5 SD of the protein, either way, in both replicates (recomputed)
erlotinib = compound: C#Cc1cccc(Nc2ncnc3cc(OCCOC)c(OCCOC)cc23)c1 [erlotinib]
How it was run: (§1)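 The values are log-two fold changes in thermal stability compared with solvent controls and come from duplicates. They were obtained by TMTpro 16plex LC-MS/MS, with channel sums equalised, on the supernatant after 21,000xg for 90 min. That supernatant came from crude K562 extract at 1 mg/mL protein treated with 10 μM compound for 30 min, heated for 3 min across 48°C-58°C, pooled and brought to 0.5% NP-40 at 4°C.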

[1] = compound: C/C(=N\NC(=O)C1=CC(=CC=C1)S(=O)(=O)N2CCOCC2)/C3=C(C=CC(=C3)Cl)O
How it was run: as §1

[2] = compound: C1=CC(=CC=C1C2=NC3=C(N2)C=C(C=C3)C(=O)N)OC4=CC=C(C=C4)Cl
How it was run: as §1

[3] = compound: C1=CC2=C(C=CC(=C2)/C=C\3/C(=O)NC(=NCC4=CC=CS4)S3)N=C1
How it was run: as §1

[4] = compound: C1=CC2=NC=CN=C2C=C1/C=C/3\C(=O)NC(=O)S3
How it was run: as §1

[5] = compound: C1=CC=C(C=C1)C2=NC(=C(N2)C3=CC=NC=C3)C4=CC(=C(C=C4)Cl)O
How it was run: as §1

[6] = compound: C1=CC=C2C(=C1)C3=NNC4=CC=CC(=C43)C2=O
How it was run: as §1

[7] = compound: C1CCN(C1)C(=O)NC2=CC=CC(=C2)NC3=NC=C(C(=N3)NCCC4=CN=CN4)Br
How it was run: as §1

[8] = compound: C1CN(CCC1(CC2=CC=C(C=C2)Cl)N)C3=NC=NC4=C3C=CN4
How it was run: as §1

IRAK-1-4 Inhibitor I = compound: C1COCCN1CCN2C3=CC=CC=C3N=C2NC(=O)C4=CC(=CC=C4)[N+](=O)[O-] [IRAK-1-4 Inhibitor I]
How it was run: as §1

Measured: log2 fold change

GALT (UniProt P07902)
inactive: erlotinib 0.015 | [1] 0.106 | [2] 0.019 | [3] 0.085 | [4] 0.021 | [5] -0.067 | [6] -0.22 | [7] -0.033 | [8] 0.007 | IRAK-1-4 Inhibitor I 0.051

FOXP4 (UniProt Q8IVH2)
inactive: erlotinib 0.107 | [1] 0.122 | [2] -0.024 | [3] 0.189 | [4] 0.005 | [5] 0.005 | [6] -0.064 | [7] -0.099 | [8] -0.048 | IRAK-1-4 Inhibitor I -0.004

FOXK1 (UniProt P85037)
inactive: erlotinib 0.014 | [1] -0.029 | [2] 0.038 | [3] 0.013 | [4] -0.057 | [5] -0.011 | [6] 0.007 | [7] -0.036 | [8] 0.013 | IRAK-1-4 Inhibitor I -0.014

FUS (UniProt P35637)
inactive: erlotinib -0.009 | [1] 0.001 | [2] -0.006 | [3] -0.007 | [4] -0.017 | [5] 0.005 | [6] 0.072 | [7] 0 | [8] 0.017 | IRAK-1-4 Inhibitor I 0.002

FTSJ1 (UniProt Q9UET6)
inactive: erlotinib -0.008 | [1] 0 | [2] 0.039 | [3] 0.005 | [4] -0.025 | [5] 0.07 | [6] 0.034 | [7] -0.007 | [8] 0.016 | IRAK-1-4 Inhibitor I 0.019

G6PD isoform 2 (UniProt P11413)
inactive: erlotinib 0.034 | [1] 0.05 | [2] 0.024 | [3] 0.016 | [4] 0.018 | [5] -0.001 | [6] -0.002 | [7] 0.006 | [8] 0.011 | IRAK-1-4 Inhibitor I 0.001

GFM1 (UniProt Q96RP9)
inactive: erlotinib -0.01 | [1] -0.023 | [2] 0.044 | [3] -0.007 | [4] -0.014 | [5] 0.009 | [6] 0.035 | [7] -0.003 | [8] 0.005 | IRAK-1-4 Inhibitor I -0.018

GGA1 isoform 6 (UniProt Q9UJY5)
inactive: erlotinib -0.053 | [1] -0.025 | [2] 0.005 | [3] 0.016 | [4] 0.037 | [5] 0.02 | [6] -0.022 | [7] -0.033 | [8] 0.004 | IRAK-1-4 Inhibitor I 0.023

FOXP1 (UniProt Q9H334)
inactive: erlotinib 0.053 | [1] -0.003 | [2] 0.025 | [3] 0.041 | [4] -0.023 | [5] 0.017 | [6] -0.124 | [7] 0.102 | [8] 0.062 | IRAK-1-4 Inhibitor I 0.005

GATAD2A isoform 3 (UniProt Q86YP4)
inactive: erlotinib 0.012 | [1] -0.124 | [2] -0.003 | [3] -0.034 | [4] 0.003 | [5] -0.002 | [6] -0.035 | [7] -0.037 | [8] 0.034 | IRAK-1-4 Inhibitor I -0.016

GDAP2 (UniProt Q9NXN4)
inactive: erlotinib -0.027 | [1] 0.005 | [2] 0.009 | [3] 0.048 | [4] 0.037 | [5] 0.012 | [6] 0.033 | [7] -0.036 | [8] 0.046 | IRAK-1-4 Inhibitor I -0.035

GET4 (UniProt Q7L5D6)
inactive: erlotinib 0.019 | [1] -0.11 | [2] -0.011 | [3] -0.035 | [4] 0.011 | [5] 0.011 | [6] -0.007 | [7] -0.01 | [8] 0.008 | IRAK-1-4 Inhibitor I 0.03

GABARAPL1 isoform 2 (UniProt Q9H0R8)
inactive: erlotinib 0.002 | [1] -0.104 | [2] 0.009 | [3] -0.075 | [4] -0.032 | [5] 0.022 | [6] -0.058 | [7] 0.048 | [8] 0.037 | IRAK-1-4 Inhibitor I 0.053

FRA10AC1 (UniProt Q70Z53)
inactive: erlotinib -0.001 | [1] 0.012 | [2] 0.018 | [3] 0.025 | [4] -0.011 | [5] 0.004 | [6] -0.015 | [7] -0.019 | [8] -0.011 | IRAK-1-4 Inhibitor I -0.011

GBE1 (UniProt Q04446)
inactive: erlotinib -0.062 | [1] 0.09 | [2] 0.032 | [3] -0.093 | [4] -0.03 | [5] 0.027 | [6] -0.007 | [7] -0.012 | [8] -0.003 | IRAK-1-4 Inhibitor I -0.013

GANAB isoform 2 (UniProt Q14697)
inactive: erlotinib 0.022 | [1] 0.005 | [2] 0 | [3] -0.006 | [4] -0.012 | [5] -0.012 | [6] -0.019 | [7] -0.002 | [8] -0.001 | IRAK-1-4 Inhibitor I -0.011

FPGT (UniProt O14772)
inactive: erlotinib 0.031 | [1] -0.005 | [2] -0.003 | [3] 0.011 | [4] 0.023 | [5] -0.002 | [6] -0.108 | [7] 0.006 | [8] -0.013 | IRAK-1-4 Inhibitor I 0.023

GALNT1 (UniProt Q10472)
inactive: erlotinib -0.044 | [1] -0.044 | [2] 0.008 | [3] 0.019 | [4] -0.002 | [5] -0.007 | [6] -0.103 | [7] -0.056 | [8] -0.006 | IRAK-1-4 Inhibitor I -0.009

GCC2 (UniProt Q8IWJ2)
inactive: erlotinib 0.006 | [1] -0.011 | [2] 0.011 | [3] 0.002 | [4] -0.025 | [5] -0.001 | [6] -0.02 | [7] 0 | [8] 0.001 | IRAK-1-4 Inhibitor I -0.004

GCHFR (UniProt P30047)
inactive: erlotinib 0.005 | [1] 0.112 | [2] -0.039 | [3] -0.159 | [4] -0.062 | [5] -0.001 | [6] -0.003 | [7] 0.062 | [8] 0.007 | IRAK-1-4 Inhibitor I 0.155

GAA (UniProt P10253)
inactive: erlotinib 0.077 | [1] 0.046 | [2] 0.054 | [3] -0.041 | [4] -0.005 | [5] 0.006 | [6] -0.208 | [7] 0.007 | [8] 0.092 | IRAK-1-4 Inhibitor I 0.025

GALK2 (UniProt Q01415)
inactive: erlotinib 0.025 | [1] 0.053 | [2] 0 | [3] -0.01 | [4] 0.013 | [5] 0.034 | [6] -0.01 | [7] -0.009 | [8] 0.023 | IRAK-1-4 Inhibitor I 0.023

GAK (UniProt O14976)
inactive: erlotinib 0.323 | [1] -0.227 | [2] -0.063 | [3] 0.245 | [4] 0.006 | [5] 0.438 | [6] 0.356 | [7] 0.172 | [8] -0.174 | IRAK-1-4 Inhibitor I 0.317

GAPDH (UniProt P04406)
inactive: erlotinib -0.007 | [1] -0.032 | [2] 0.031 | [3] 0.006 | [4] -0.006 | [5] -0.005 | [6] 0.028 | [7] 0.027 | [8] -0.034 | IRAK-1-4 Inhibitor I 0.003

GCSH (UniProt P23434)
inactive: erlotinib -0.002 | [1] -0.124 | [2] 0.018 | [3] 0.029 | [4] 0.096 | [5] 0.019 | [6] 0.044 | [7] -0.035 | [8] 0.078 | IRAK-1-4 Inhibitor I -0.017

GAGE5 (UniProt Q13069)
inactive: erlotinib 0.012 | [1] 0.009 | [2] 0.017 | [3] 0.031 | [4] -0.016 | [5] -0.059 | [6] 0 | [7] 0.012 | [8] 0.098 | IRAK-1-4 Inhibitor I 0.027

Two consecutive entries out of the list so far, quoted:
GALK2 (UniProt Q01415)
inactive: erlotinib 0.025 | [1] 0.053 | [2] 0 | [3] -0.01 | [4] 0.013 | [5] 0.034 | [6] -0.01 | [7] -0.009 | [8] 0.023 | IRAK-1-4 Inhibitor I 0.023

GAK (UniProt O14976)
inactive: erlotinib 0.323 | [1] -0.227 | [2] -0.063 | [3] 0.245 | [4] 0.006 | [5] 0.438 | [6] 0.356 | [7] 0.172 | [8] -0.174 | IRAK-1-4 Inhibitor I 0.317

The list continues:

FUCA2 (UniProt Q9BTY2)
inactive: erlotinib -0.014 | [1] 0.02 | [2] -0.002 | [3] 0 | [4] 0.004 | [5] 0.014 | [6] 0.01 | [7] 0.01 | [8] -0.013 | IRAK-1-4 Inhibitor I -0.006
